Reference: PubChem BioAssay AID2685 (National Center for Advancing Translational Sciences (NCATS), 2010)
The campaign covered roughly 320,000 compounds. About 2,100 (0.66%) were called active. Inconclusive results, whose numbers are uncertain, are shown with a selection of clear calls. Calls follow the shape of the dose curve; as a rule, active = well fitted inhibition curve with a large enough effect in the signal ratio, with a control signal flat (not every such curve was filed as active); inconclusive = small, poorly fitted or top-dose-only effect, or effect the other way, or a change in a side signal; inactive = flat fitted curve, though single readings scatter; the % refers to the signal ratio. Potencies of inconclusive entries are doubtful fits and often do not repeat.

assay: qHTS Assay for Lipid Storage Modulators in Drosophila S3 Cells; conditions: BODIPY lipid droplet fluorescence, 18-24 h, cells fed with added oleic acid; lipid storage change, negative = inhibition: at 46.1 µM (top of the series) unless noted
How it was run: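 Drosophila S3 cells got compounds at several concentrations plus oleic acid (400 uM solution). Laser-scanning cytometry with 488 nm excitation read lipid droplets at 500-530 nm and cells at 575-640 nm. Percent activity was relative to 20 uM Triacsin C.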
% is scaled to controls: 0 for no effect and ±100 for the full control effect; potency is read from the fitted curve at half-maximal effect.

Row | SMILES | lipid storage change, negative = inhibition | Potency | outcome
1 | CCOC(=O)c1sc(=NC(=O)c2ccc(OC)c(OC)c2)n(C)c1C | inactive: 9.28% | – | –
2 | COc1ccc(C(C(=O)NC2CCCC2)N(CCC(C)C)C(=O)CCC(=O)Nc2cc(C)on2)cc1 (configuration not stated) | inconclusive: 13.3% | – | –
3 | C=CCOc1cccc(C(=O)N2CCCC(Nc3ccc4c(c3)OCCO4)C2)c1 (configuration not stated) | inconclusive: 6.84% | – | –
4 | O=C(CSc1nc2ccccc2nc1SCC(=O)N1CCCCC1)N1CCCCC1 | – | inconclusive: 25.9 µM [falling, partial curve, poor fit] | –
5 | Cc1cc2c(ncn2C)c(NS(=O)(=O)c2ccc(F)cc2)c1C | inconclusive: -12.7% | – | –
6 | CCc1ccc(C(C(=O)NCc2ccc(F)cc2)N(C(=O)c2csnn2)C2CC2)cc1 (configuration not stated) | – | – | inactive [at 46.1 µM]
7 | O=C(Nc1cnn(Cc2ccc(Cl)cc2)c1)c1cnccn1 | inconclusive: 19.7% | – | –
8 | COCC(C)NCc1ccccc1C (configuration not stated) | inconclusive: -96.9% | – | –
9 | Cc1noc2ncnc(N3CCN(c4cccc(Cl)c4)CC3)c12 | inconclusive: 25.9% [at 9.22 µM] | – | –
10 | Cn1ncc(C#N)c1NC(=O)C1CC(c2ccc(Cl)c(Cl)c2)=NO1 (configuration not stated) | inconclusive: -4.66% | – | –
11 | Cc1c(Cl)cccc1NC(=O)CSc1nnc(C)n1CC1CCCO1 (configuration not stated) | – | inconclusive: 29.1 µM [falling, single point] | –
12 | CCOC(=O)C1C(=O)N(C(=O)c2cncc(Br)c2)CC1c1ccccc1 (configuration not stated) | inconclusive: -5.77% | – | –
13 | CCOC(=O)c1cc(NC(=O)c2c(C)noc2C)cc(C(=O)OCC)c1 | inconclusive: -0.986% | – | –
14 | COc1cc(CNCCO)cc(Br)c1OCc1ccccc1 | inconclusive: -28.4% | – | –
15 | CCOCc1cc(=O)[nH]c(SC)n1 | – | inconclusive: 0.58 µM [falling, single point] | –
16 | Cc1c(NC(=O)Nc2cccc(F)c2)c(=O)n(-c2ccccc2)n1C | – | inconclusive: 18.4 µM [activator, single point] | –
17 | Cc1nn(Cc2ccc([N+](=O)[O-])cc2)c(=O)n1-c1ccccc1Cl | inconclusive: 18.8% | – | –
18 | COc1ccc(-c2nnn(CC(=O)c3c[nH]c4ccccc34)n2)cc1OC | – | inconclusive: 10.3 µM [activator, partial curve] | –
19 | COC(=O)c1cc(NC(=O)C2C3C=CC(C3)C2C(=O)O)cc(C(=O)OC)c1 (configuration not stated) | inconclusive: -18.1% | – | –
20 | Cc1ccnc(NC(=O)Nc2ccc(F)cc2)c1 | inconclusive: 129% | – | –
21 | CCOc1ccc(-c2nc(C#N)c(N3CCOCC3)o2)cc1 | inconclusive: 22% [at 9.22 µM] | – | –
22 | Cc1oc(-c2cccc(Cl)c2)nc1CS(=O)(=O)CC(=O)NCc1ccco1 | – | inconclusive: 0.116 µM [activator, full curve, poor fit] | –

Single records, as listed above. Values in the order: lipid storage change, negative = inhibition | Potency | outcome
`Cc1oc(-c2cccc(Cl)c2)nc1CS(=O)(=O)CC(=O)NCc1ccco1` reads – | inconclusive: 0.116 µM [activator, full curve, poor fit] | –
`COC(=O)c1cc(NC(=O)C2C3C=CC(C3)C2C(=O)O)cc(C(=O)OC)c1` (configuration not stated) reads inconclusive: -18.1% | – | –
